Laboratory results reported in paper PMC9016352.
Construct, isoform or probe ends are uncertain for at least one entry.

Protein sequences, listed by entry. Tags and fused reporters are not part of them.
UniProt Q13148, whole entry: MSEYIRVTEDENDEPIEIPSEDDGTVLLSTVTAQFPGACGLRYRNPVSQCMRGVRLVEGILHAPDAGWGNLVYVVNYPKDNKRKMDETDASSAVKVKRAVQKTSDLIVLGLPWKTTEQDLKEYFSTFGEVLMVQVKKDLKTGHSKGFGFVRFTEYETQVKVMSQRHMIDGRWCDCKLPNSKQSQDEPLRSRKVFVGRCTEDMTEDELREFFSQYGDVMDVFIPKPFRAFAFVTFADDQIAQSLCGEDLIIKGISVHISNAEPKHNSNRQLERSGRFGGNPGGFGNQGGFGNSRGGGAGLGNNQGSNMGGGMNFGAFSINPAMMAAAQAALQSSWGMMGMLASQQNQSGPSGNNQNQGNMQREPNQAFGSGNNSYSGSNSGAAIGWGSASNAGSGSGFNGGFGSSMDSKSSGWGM

How the values were obtained:
[1] = molecular target: TDP-43-MBP-His6 12A (UniProt Q13148); assay: EMSA; conditions: comparable to Wt; 20 mM NaPO4 pH 8, 150 mM NaCl, 1 mM DTT, 5 mM MgCl2, 0.5 mg/ml BSA, 0.1 mg/ml yeast tRNA, 5% glycerol, 1 U/ul RNase inhibitor, 20 min RT; 16 nM Cy5-RNA, 0-1.6 uM protein; recombinant protein; protein details: C-terminal TEV site-MBP-His6; label: 5' Cy5
[2] = molecular target: TDP-43-MBP-His6 12D (UniProt Q13148); assay: EMSA; conditions: comparable to Wt; 20 mM NaPO4 pH 8, 150 mM NaCl, 1 mM DTT, 5 mM MgCl2, 0.5 mg/ml BSA, 0.1 mg/ml yeast tRNA, 5% glycerol, 1 U/ul RNase inhibitor, 20 min RT; 16 nM Cy5-RNA, 0-1.6 uM protein; recombinant protein; protein details: C-terminal TEV site-MBP-His6; label: 5' Cy5

Question: Does UGUGUGUGUGUGUGUGUGUGUGUG [(UG)12 RNA] bind [1]?
Answer: Result: binds

Question: Does UGUGUGUGUGUGUGUGUGUGUGUG [(UG)12 RNA] bind [2]?
Answer: Result: binds
